# Reference: PubChem BioAssay (EPA / NIEHS)
# Protein sequences, listed by entry. Tags and fused reporters are not part of them. Lines headed by an entry give the natural chain unless they say otherwise; changes in a name come on top.
# UniProt Q01717: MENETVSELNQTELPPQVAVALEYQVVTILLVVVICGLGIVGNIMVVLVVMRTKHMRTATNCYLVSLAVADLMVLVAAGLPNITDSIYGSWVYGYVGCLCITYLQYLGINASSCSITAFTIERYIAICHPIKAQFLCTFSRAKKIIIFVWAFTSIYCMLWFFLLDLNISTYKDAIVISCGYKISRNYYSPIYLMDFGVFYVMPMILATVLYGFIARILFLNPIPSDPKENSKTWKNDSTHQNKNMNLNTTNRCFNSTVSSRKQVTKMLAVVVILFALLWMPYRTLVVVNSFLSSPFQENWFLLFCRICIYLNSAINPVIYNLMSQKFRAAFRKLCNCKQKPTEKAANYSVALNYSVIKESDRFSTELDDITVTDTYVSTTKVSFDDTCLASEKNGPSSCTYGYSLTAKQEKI
# UniProt P30536, whole entry, looked up: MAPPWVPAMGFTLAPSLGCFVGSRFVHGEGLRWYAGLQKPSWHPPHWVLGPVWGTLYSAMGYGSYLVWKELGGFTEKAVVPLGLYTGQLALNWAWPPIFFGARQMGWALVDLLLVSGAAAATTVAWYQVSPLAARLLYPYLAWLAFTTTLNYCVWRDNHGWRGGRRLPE
# Values joined by “and” are separate entries in the source; they are usually repeats but may differ in a detail not shown here. Equal entries are not always repeated. The shares of active, inactive and inconclusive entries below differ from those in the screen. Potencies beside an inconclusive call are fits to weak or partial responses and may not hold up. Some structures have more than one record in an assay (separate samples or runs), and their calls can disagree. Active and inactive are the calls of the source. Rule for the calls: active = hit-call score of the fitted dose curve at least 0.9, where 1 is the maximum; inconclusive = response in the unintended direction; inactive = score below 0.9.
# Target: rat Thyrotropin Releasing Hormone Receptor (TRH), Trhr (gene 25570) (UniProt Q01717)
# Test: NVS_GPCR_rTRH: NovaScreen (NVS) G Protein-Coupled Receptor Assay for rat Thyrotropin Releasing Hormone Receptor (TRH) (AID 2283329);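 note: hit means lower bound tracer signal versus DMSO baseline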
# Procedure, shortened: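 Rat forebrain membranes; radioligand displacement at TRH receptor by filter-based scintillation counting, read 4 h after dosing. Duplicate single-point screen at 25 uM, actives rerun in concentration series; loss of signal relative to DMSO.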
Structure (SMILES),outcome,AC50
c1ccc2c(c1)sc1ccccc12,inactive,
c1cc[c]([Hg][c]2ccccc2)cc1,,inconclusive: 0.376 µM
CCC(CC)Nc1c([N+](=O)[O-])cc(C)c(C)c1[N+](=O)[O-],inactive,
ClCC(Cl)CCl,inactive,
CCOCn1c(-c2ccc(Cl)cc2)c(C#N)c(Br)c1C(F)(F)F,inactive,
C[C@]12C=CC3=C4CCC(=O)C=C4CC[C@H]3[C@@H]1CC[C@@H]2O,inactive,
COP(=O)(OC)O/C(=C\Cl)c1cc(Cl)c(Cl)cc1Cl,inactive,
CCN(CC)C(=O)C(C)Oc1cccc2ccccc12 (configuration not stated),inactive,active: 42.2 µM
CCOc1cc(C=O)ccc1O,,inconclusive: 0.612 µM
CCCC=NO,inactive,
Fc1ccc(C2(Cn3cncn3)OC2c2ccccc2Cl)cc1 (configuration not stated),,inconclusive: 25 µM
CC(=Cc1ccccc1)[N+](=O)[O-],inactive,
Oc1ccc(C(c2ccc(O)cc2)(C(F)(F)F)C(F)(F)F)cc1,,inconclusive: 5.96 µM
C1CCC(NC2CCCCC2)CC1,inactive,
CCCCC(CC)COC(=O)c1c(Br)c(Br)c(Br)c(Br)c1C(=O)OCC(CC)CCCC (configuration not stated),,inconclusive: 0.622 µM
NC(=O)O,,inconclusive: 0.866 µM
N#CCC#N,inactive,
CC(C)(c1ccc(OCC2CO2)cc1)c1ccc(OCC2CO2)cc1 (configuration not stated),,inconclusive: 25 µM
O=[N+]([O-])/N=C1\NCCN1Cc1ccc(Cl)nc1,,inconclusive: 0.276 µM
O=S1(=O)OC(c2cc(Br)c(O)c(Br)c2)(c2cc(Br)c(O)c(Br)c2)c2ccccc21,inactive,

# Sorted by molecular weight (rising): 8 of the compounds above.
Structure (SMILES),outcome,AC50
CC(=Cc1ccccc1)[N+](=O)[O-],inactive,
CCOc1cc(C=O)ccc1O,,inconclusive: 0.612 µM
c1ccc2c(c1)sc1ccccc12,inactive,
O=[N+]([O-])/N=C1\NCCN1Cc1ccc(Cl)nc1,,inconclusive: 0.276 µM
C[C@]12C=CC3=C4CCC(=O)C=C4CC[C@H]3[C@@H]1CC[C@@H]2O,inactive,
CCN(CC)C(=O)C(C)Oc1cccc2ccccc12 (configuration not stated),inactive,active: 42.2 µM
Oc1ccc(C(c2ccc(O)cc2)(C(F)(F)F)C(F)(F)F)cc1,,inconclusive: 5.96 µM
O=S1(=O)OC(c2cc(Br)c(O)c(Br)c2)(c2cc(Br)c(O)c(Br)c2)c2ccccc21,inactive,

# Target: human Peripheral-type Benzodiazepine Receptor (PBR), TSPO (gene 706) (UniProt P30536)
# Test: NVS_MP_hPBR: NovaScreen (NVS) Membrane Protein Assay for human Peripheral-type Benzodiazepine Receptor (PBR) (AID 2283331);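 note: hits reduce radioligand binding relative to DMSO baseline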
# Procedure, shortened: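 Human colonic cell membranes were incubated with test chemical for 1 hour; radioligand binding was measured by filter-based scintillation counting. Primary screen ran in duplicate at 25 uM, with actives followed in concentration series; loss of signal versus DMSO baseline.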
Structure (SMILES),AC50,outcome
O=C1c2ccccc2C(=O)N1SC(Cl)(Cl)Cl,inconclusive: 25 µM,
Cc1cc(C2CC2)nc(Nc2ccccc2)n1,active: 25 µM,
CCC(CC)Nc1c([N+](=O)[O-])cc(C)c(C)c1[N+](=O)[O-],,inactive
COc1nn(CSP(=S)(OC)OC)c(=O)s1,,inactive
CSc1nnc(C(C)(C)C)c(=O)n1N,inconclusive: 1.99 µM,
CC1(C)C(C(=O)OC(C#N)c2cccc(Oc3ccccc3)c2)C1(C)C (configuration not stated),,inactive
Cc1ccc(N=C=O)cc1N=C=O,active: 4.24 µM,
CC(C)CCCCCCCOP(=O)(Oc1ccccc1)Oc1ccccc1,active: 6.03 µM,
CN(C)C(=S)SSC(=S)N(C)C,inconclusive: 6.83 µM,
CCCN(CCOc1c(Cl)cc(Cl)cc1Cl)C(=O)n1ccnc1,active: 2.59 µM,
CCC(C)(C)c1ccc(O)cc1,,inactive
CCOc1nc(NC)nc(NC(=O)NS(=O)(=O)c2ccccc2C(=O)OC)n1,inconclusive: 25 µM,
COP(=O)(OC)O/C(=C\Cl)c1cc(Cl)c(Cl)cc1Cl,active: 0.401 µM,
CCCN(CCC)c1c([N+](=O)[O-])cc(C(F)(F)F)cc1[N+](=O)[O-],inconclusive: 0.22 µM,
CCC[CH2][Sn]([CH2]CCC)([CH2]CCC)[O]C(=O)c1ccccc1,active: 5.59 µM,
C=CC(=O)OCC(CC)(COC(=O)C=C)COC(=O)C=C,active: 17.2 µM,
CN=C=S,,inactive
Oc1ccc(C(c2ccc(O)cc2)(C(F)(F)F)C(F)(F)F)cc1,inconclusive: 17.2 µM and inconclusive: 38.8 µM and inconclusive: 25 µM,
C[N+]1(C)CCCCC1,inconclusive: 25 µM,
CC(C)NC(=O)N1CC(=O)N(c2cc(Cl)cc(Cl)c2)C1=O,active: 8.8 µM,
CNC(=O)Oc1cccc2c1OC(C)(C)C2,inconclusive: 25 µM,
